The list shows a part of the results.
How the values were obtained:
Assay in all cases: glycan array binding signal (z-score within array); higher = stronger binding
Details in all cases: glycan notation: IUPAC condensed, linker removed
Fuc(a1-2)Gal = target: Fuc(a1-2)Gal
Outline: (§1)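 Negative Z-scores can be read as non-binding. The Z-score is calculated within each array and then averaged across arrays of one protein sequence at different concentrations or buffers and across linkers. Arrays, 3228 in all, were curated from the Consortium for Functional Glycomics database and kept only where the protein sequence was available.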

Fuc(a1-2)Gal(b1-3)GalNAc = target: Fuc(a1-2)Gal(b1-3)GalNAc
Outline: as §1

[1] = target: Fuc(a1-2)Gal(b1-3)GalNAc(a1-3)[Fuc(a1-2)]Gal(b1-4)Glc
Outline: as §1

[2] = target: Fuc(a1-2)Gal(b1-3)GalNAc(a1-3)[Fuc(a1-2)]Gal(b1-4)GlcNAc
Outline: as §1

[3] = target: Fuc(a1-2)Gal(b1-3)GalNAc(b1-3)Gal
Outline: as §1

[4] = target: Fuc(a1-2)Gal(b1-3)GalNAc(b1-3)Gal(a1-4)Gal(b1-4)Glc
Outline: as §1

[5] = target: Fuc(a1-2)Gal(b1-3)GalNAc(b1-4)[Neu5Ac(a2-3)]Gal(b1-4)Glc
Outline: as §1

Fuc(a1-2)Gal(b1-3)GlcNAc = target: Fuc(a1-2)Gal(b1-3)GlcNAc
Outline: as §1

[6] = target: Fuc(a1-2)Gal(b1-3)GlcNAc(b1-2)Man(a1-3)[Fuc(a1-2)Gal(b1-3)GlcNAc(b1-2)Man(a1-6)]Man(b1-4)GlcNAc(b1-4)GlcNAc
Outline: as §1

[7] = target: Fuc(a1-2)Gal(b1-3)GlcNAc(b1-3)Gal(b1-4)Glc
Outline: as §1

[8] = target: Fuc(a1-2)Gal(b1-3)GlcNAc(b1-3)[Fuc(a1-3)[Gal(b1-4)]GlcNAc(b1-6)]Gal(b1-4)Glc
Outline: as §1

[9] = target: Fuc(a1-2)Gal(b1-3)[Fuc(a1-4)]GlcNAc
Outline: as §1

[10] = target: Fuc(a1-2)Gal(b1-3)[Fuc(a1-4)]GlcNAc(b1-2)Man(a1-3)[Fuc(a1-2)Gal(b1-3)[Fuc(a1-4)]GlcNAc(b1-2)Man(a1-6)]Man(b1-4)GlcNAc(b1-4)GlcNAc
Outline: as §1

[11] = target: Fuc(a1-2)Gal(b1-3)[Fuc(a1-4)]GlcNAc(b1-3)[Fuc(a1-3)[Gal(b1-4)]GlcNAc(b1-6)]Gal(b1-4)Glc
Outline: as §1

[12] = target: Fuc(a1-2)Gal(b1-3)[Fuc(a1-4)]GlcNAc(b1-3)[Gal(b1-4)GlcNAc(b1-6)]Gal(b1-4)Glc
Outline: as §1

Fuc(a1-2)Gal(b1-4)Glc = target: Fuc(a1-2)Gal(b1-4)Glc
Outline: as §1

Fuc(a1-2)Gal(b1-4)Glc6S = target: Fuc(a1-2)Gal(b1-4)Glc6S
Outline: as §1

Fuc(a1-2)Gal(b1-4)GlcNAc = target: Fuc(a1-2)Gal(b1-4)GlcNAc
Outline: as §1

[13] = target: Fuc(a1-2)Gal(b1-4)GlcNAc(b1-2)Man(a1-3)[Fuc(a1-2)Gal(b1-4)GlcNAc(b1-2)Man(a1-6)]Man(b1-4)GlcNAc(b1-4)GlcNAc
Outline: as §1

[14] = target: Fuc(a1-2)Gal(b1-4)GlcNAc(b1-3)Gal(b1-4)GlcNAc
Outline: as §1

[15] = target: Fuc(a1-2)Gal(b1-4)GlcNAc(b1-3)Gal(b1-4)GlcNAc(b1-3)Gal(b1-4)GlcNAc
Outline: as §1

[16] = target: Fuc(a1-2)Gal(b1-4)GlcNAc(b1-3)GalNAc
Outline: as §1

[17] = target: Fuc(a1-2)Gal(b1-4)GlcNAc6S
Outline: as §1

[18] = target: Fuc(a1-2)Gal(b1-4)[Fuc(a1-3)]GlcNAc
Outline: as §1

[19] = target: Fuc(a1-2)Gal(b1-4)[Fuc(a1-3)]GlcNAc(b1-2)Man(a1-3)[Fuc(a1-2)Gal(b1-4)[Fuc(a1-3)]GlcNAc(b1-2)Man(a1-6)]Man(b1-4)GlcNAc(b1-4)GlcNAc
Outline: as §1

[20] = target: Fuc(a1-2)Gal(b1-4)[Fuc(a1-3)]GlcNAc(b1-3)Gal(b1-4)[Fuc(a1-3)]GlcNAc
Outline: as §1

[21] = target: Fuc(a1-2)Gal(b1-4)[Fuc(a1-3)]GlcNAc(b1-3)Gal(b1-4)[Fuc(a1-3)]GlcNAc(b1-3)Gal(b1-4)[Fuc(a1-3)]GlcNAc
Outline: as §1

Fuc(a1-2)Gal6S(b1-4)Glc = target: Fuc(a1-2)Gal6S(b1-4)Glc
Outline: as §1

[22] = target: Fuc(a1-2)Gal6S(b1-4)Glc6S
Outline: as §1

[23] = target: Fuc(a1-2)Gal6S(b1-4)GlcNAc
Outline: as §1

B1: MIC2 (Toxoplasma gondii), S8F9G8 (protein)
chain: MRLQREAVFGLMFACGMWMWPSEVAGGGWSIVDALRKRYDTSRGGDANGVDTSGVEDVIQSESAIGAAEGCTNQLDICFLIDSSGSIGIQNFRLVKQFLHTFLMVLPIGPEEVNNAVVTYSTDVHLQWDLQSPNAVDKQLAAHAVLDMPYKKGSTNTSDGLKACKQILFTGSRPGREHVPKLVIGMTDGESDSDFRTVRAAKEIRELGGIVTVLAVGHYVKHSECRSMCGCSGTSDDDSPCPLYLRADWGQLATAIKPMLKEVCKTLPQDAICSDWSAWSPCSVSCGDGSQIRTRTEVSAPQPGTPTCPDCPAPMGRTCVEQGGLEEIRECSAGVCAVDAGCGVWGEWSAWSASCGNATRKRERTRYNDPPPQGAGRRCENQDPPVLQEQTEEATLAPCITIPPTPPEWAAWSDCTVTCGGGNRHRVRNALPPGLGSQNGESDESLVSKLWPGTDLRQEEACNTSPCPINATCGQFEEWSTCSVSCGGGLKTRSRNPWNEDQQHGGLSCEQQHPGGRTETITCNPQACPVDERPGEWAEWGECSVTCGDGVRERRRGKSLVEAKFGGRTIDQQNEALPEDLKIKNVEYEPCSYPACGASCTYVWSDWNKCVCPMGYQARHAAVKFDYRNKPCDLPTFETKACSCGETNPVPSEGTTPGAPGATGPEQPNQRPLPEGSDENETPTNEEGEQSKKESGSGIAGAIAGGVIGGLILLGAAGGASYHYYLSSSVGSPSAEIEYEADDGATKVVMEEEKETLVPVDDDSDMWME
- glycan array binding signal (z-score) (Fuc(a1-2)Gal): -0.939
- glycan array binding signal (z-score) (Fuc(a1-2)Gal(b1-3)GalNAc): -0.56
- glycan array binding signal (z-score) [1]: 0.334
- glycan array binding signal (z-score) [2]: 0.72
- glycan array binding signal (z-score) [3]: 1.55
- glycan array binding signal (z-score) [4]: 0.859
- glycan array binding signal (z-score) [5]: -0.521
- glycan array binding signal (z-score) (Fuc(a1-2)Gal(b1-3)GlcNAc): -0.642
- glycan array binding signal (z-score) [6]: -0.799
- glycan array binding signal (z-score) [7]: -0.779
- glycan array binding signal (z-score) [8]: -0.526
- glycan array binding signal (z-score) [9]: 0.282
- glycan array binding signal (z-score) [10]: 2.4
- glycan array binding signal (z-score) [11]: -0.651
- glycan array binding signal (z-score) [12]: -1.05
- glycan array binding signal (z-score) (Fuc(a1-2)Gal(b1-4)Glc): -0.954
- glycan array binding signal (z-score) (Fuc(a1-2)Gal(b1-4)Glc6S): 0.437
- glycan array binding signal (z-score) (Fuc(a1-2)Gal(b1-4)GlcNAc): -0.869
- glycan array binding signal (z-score) [13]: -0.517
- glycan array binding signal (z-score) [14]: 0.079
- glycan array binding signal (z-score) [15]: -0.647
- glycan array binding signal (z-score) [16]: -0.541
- glycan array binding signal (z-score) [17]: 0.297
- glycan array binding signal (z-score) [18]: 0.037
- glycan array binding signal (z-score) [19]: 1.29
- glycan array binding signal (z-score) [20]: 0.181
- glycan array binding signal (z-score) [21]: -0.232
- glycan array binding signal (z-score) (Fuc(a1-2)Gal6S(b1-4)Glc): 0.99
- glycan array binding signal (z-score) [22]: -0.577
- glycan array binding signal (z-score) [23]: 0.325

From the supplement of paper PMC8728848
